Drawing on paper PMC12380674, this text covers binding for 1 molecule.

Sequences of proteins named here, by UniProt entry; tags and fusion partners are left off.
UniProt P35609: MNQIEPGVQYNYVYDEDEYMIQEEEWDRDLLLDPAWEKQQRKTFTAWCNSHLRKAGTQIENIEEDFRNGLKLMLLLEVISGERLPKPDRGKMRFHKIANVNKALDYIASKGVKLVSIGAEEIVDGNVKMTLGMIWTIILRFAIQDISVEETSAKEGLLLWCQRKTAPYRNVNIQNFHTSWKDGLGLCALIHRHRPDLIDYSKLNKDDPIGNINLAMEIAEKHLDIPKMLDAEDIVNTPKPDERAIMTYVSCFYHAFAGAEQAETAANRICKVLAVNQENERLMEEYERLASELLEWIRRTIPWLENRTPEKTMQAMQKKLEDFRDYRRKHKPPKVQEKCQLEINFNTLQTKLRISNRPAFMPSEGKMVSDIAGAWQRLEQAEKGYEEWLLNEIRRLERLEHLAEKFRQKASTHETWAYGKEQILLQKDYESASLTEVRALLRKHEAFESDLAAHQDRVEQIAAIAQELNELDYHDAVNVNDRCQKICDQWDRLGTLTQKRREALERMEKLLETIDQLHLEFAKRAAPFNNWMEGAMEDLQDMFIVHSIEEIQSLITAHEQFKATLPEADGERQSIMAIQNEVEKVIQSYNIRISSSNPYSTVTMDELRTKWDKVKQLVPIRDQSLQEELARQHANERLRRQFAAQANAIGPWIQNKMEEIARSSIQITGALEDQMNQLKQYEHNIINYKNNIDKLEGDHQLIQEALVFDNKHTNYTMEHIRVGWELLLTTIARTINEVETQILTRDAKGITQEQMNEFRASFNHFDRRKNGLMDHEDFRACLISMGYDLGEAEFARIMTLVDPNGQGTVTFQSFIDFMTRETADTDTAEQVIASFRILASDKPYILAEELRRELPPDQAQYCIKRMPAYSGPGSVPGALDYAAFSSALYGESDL

The assay concerns the target α-actinin-2 (ACTN2) (UniProt P35609). Put plainly: pull-down; GST pull-down (Figure 9D); bait, source of the proteins and conditions not told.

These are yes or no findings as the source states them, for the method shown. In cells and extracts the contact can be indirect. Some results given as binding are weak or reduced against the parent protein; the word gives no strength.

B1: PDZ and LIM domain protein 1 (PDLIM1) (protein, UniProt O00151 1-329)
chain: MTTQQIDLQGPGPWGFRLVGGKDFEQPLAISRVTPGSKAALANLCIGDVITAIDGENTSNMTHLEAQNRIKGCTDNLTLTVARSEHKVWSPLVTEEGKRHPYKMNLASEPQEVLHIGSAHNRSAMPFTASPASSTTARVITNQYNNPAGLYSSENISNFNNALESKTAASGVEANSRPLDHAQPPSSLVIDKESEVYKMLQEKQELNEPPKQSTSFLVLQEILESEEKGDPNKPSGFRSVKAPVTKVAASIGNAQKLPMCDKCGTGIVGVFVKLRDRHRHPECYVCTDCGTNLKQKGHFFVEDQIYCEKHARERVTPPEGYEVVTVFPK
For the molecule B1, the binding result is recorded as “binds”.
